Assay results as given in PMC5584168.
No constants are given. Whether binding was seen depends on the method and setting. In cells and extracts the contact can be indirect. Some binding calls cover weakened binding; strength is not graded here. Where a sequence is shown, tags or fusion partners need not be part of it.

Target: T1, GST-Sli15 (S. cerevisiae) (UniProt P38283)
T1 sequence: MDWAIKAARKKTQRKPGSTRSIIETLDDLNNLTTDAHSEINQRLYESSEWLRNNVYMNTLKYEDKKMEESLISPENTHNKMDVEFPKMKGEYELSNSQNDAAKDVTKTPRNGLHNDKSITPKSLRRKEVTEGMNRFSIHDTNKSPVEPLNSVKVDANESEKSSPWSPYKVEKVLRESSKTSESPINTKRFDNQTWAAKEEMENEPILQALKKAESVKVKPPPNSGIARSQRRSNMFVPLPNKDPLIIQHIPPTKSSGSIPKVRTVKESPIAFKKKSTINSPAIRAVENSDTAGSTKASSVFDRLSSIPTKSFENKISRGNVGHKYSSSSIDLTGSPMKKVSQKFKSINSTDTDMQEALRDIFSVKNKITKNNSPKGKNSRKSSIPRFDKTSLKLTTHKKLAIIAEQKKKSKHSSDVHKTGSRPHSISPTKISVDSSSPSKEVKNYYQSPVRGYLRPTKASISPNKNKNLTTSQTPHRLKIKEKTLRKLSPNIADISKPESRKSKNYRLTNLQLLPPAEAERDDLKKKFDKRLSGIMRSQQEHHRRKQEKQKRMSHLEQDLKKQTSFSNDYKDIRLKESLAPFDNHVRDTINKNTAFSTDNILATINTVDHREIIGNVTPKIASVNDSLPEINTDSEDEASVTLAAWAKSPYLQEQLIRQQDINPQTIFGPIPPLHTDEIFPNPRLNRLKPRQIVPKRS
Test: pull-down; GST-Sli15 immobilized on glutathione beads incubated with yeast extract, 4°C, 45 min, yeast lysis buffer (20 mM Tris pH 7.5, 100 mM NaCl, 1 mM DTT, 0.1% Triton X-100, 1 mM EDTA); anti-c-Myc Western blot; only the target purified

B1: full-length She1-13myc (protein, UniProt P38200 1-338)
chain: MNDKLQEEHNEKDTTSQINGFTPPHMSIDFHSNNNSNIIETIGVSKRLGNSVLSELDSRASSKFEFLKDQSEQQYNGDKNNEPKSGSYNINEFFQAKHDSQFGQMESLDTHYTLLHTPKRKSQHAIPQDRSDSMKRSRPSRSIPYTTPVVNDITRRIRRLKLRNSLVNGNDIVARARSMQANSNINSIKNTPLSKPKPFMHKPNFLMPTTNSLNKINSAHRNTSSSSTASSIPRSKVHRSISIRDLHAKTKPVERTPVAQGTNSQLKNSVSVFDRLYKQTTFSRSTSMNNLSSGTSAKSKEHTNVKTRLVKSKTSGSLSSNLKQSTATGTKSDRPIWR
binding: binds
